Patent US7041687B2, “Indazole compounds useful as protein kinase inhibitors” (Vertex Pharmaceuticals Incorporated, priority 2002, dated 2006)
Some entries share one result that the patent states for a list of compounds.

Sequences of proteins named here, by UniProt entry; tags and fusion partners are left off. A change or cut given only in a name is not applied to a line headed by its entry.
UniProt Q9Y243: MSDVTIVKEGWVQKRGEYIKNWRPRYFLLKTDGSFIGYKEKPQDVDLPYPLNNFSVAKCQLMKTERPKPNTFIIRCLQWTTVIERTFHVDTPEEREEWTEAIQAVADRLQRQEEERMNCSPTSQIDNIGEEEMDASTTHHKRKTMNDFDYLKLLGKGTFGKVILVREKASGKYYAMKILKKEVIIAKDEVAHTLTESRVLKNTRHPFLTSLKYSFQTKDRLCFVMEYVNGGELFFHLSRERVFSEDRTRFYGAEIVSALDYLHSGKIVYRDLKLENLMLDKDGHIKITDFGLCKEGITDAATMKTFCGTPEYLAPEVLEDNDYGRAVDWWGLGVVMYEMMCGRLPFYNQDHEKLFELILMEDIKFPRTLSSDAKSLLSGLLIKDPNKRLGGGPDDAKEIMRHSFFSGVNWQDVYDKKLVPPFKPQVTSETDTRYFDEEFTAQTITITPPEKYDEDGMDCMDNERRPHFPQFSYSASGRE

Key:
ROCK = ROCK inhibition assay (standard coupled enzyme assay); assay type: biochemical; settings: 13 μM ATP, peptide KKRNRTLSV, 30° C.
AKT-3 = AKT-3 (Homo sapiens, UniProt Q9Y243); test: AKT-3 inhibition assay (standard coupled enzyme assay); assay type: biochemical; settings: 170 μM ATP, 200 μM peptide, 45 nM AKT, 30° C.

SMILES | Ki (ROCK) | Ki (AKT-3)
NCCC(C(=O)Nc1ccc2[nH]nc(CCc3ccccc3)c2c1)c1ccc(Cl)c(Cl)c1 (stereo not shown) [Compound I-123] | < 1 µM | 
NCCC(C(=O)Nc1ccc2[nH]ncc2c1)c1cccc(OCc2ccccc2)c1 (stereo not shown) [Compound I-1006] | < 1 µM | 
CNCCC(C(=O)Nc1ccc2[nH]ncc2c1)c1ccc(Cl)c(Cl)c1 (stereo not shown) [Compound I-153] | < 1 µM | 
NC(C(=O)Nc1ccc2[nH]ncc2c1)c1ccc(Cl)c(Cl)c1 (stereo not shown) [Compound I-54] | < 1 µM | 
O=C(Cc1cccnc1)Nc1ccc2[nH]ncc2c1 [Compound I-23] | > 3 µM | 
O=C(CC1CCCCC1)Nc1ccc2[nH]ncc2c1 [Compound I-29] | > 3 µM | 
NCCC(C(=O)Nc1ccc2[nH]ncc2c1)c1ccccc1O (stereo not shown) [Compound I-1008] | < 1 µM | 
O=C(Cc1ccc(F)cc1Cl)Nc1ccc2[nH]ncc2c1 [Compound I-20] | < 1 µM | 
NCCC(C(=O)Nc1ccc2[nH]ncc2c1)c1cccc(N)c1 (stereo not shown) [Compound I-107] | < 1 µM | 
NCCC(C(=O)Nc1ccc2[nH]ncc2c1)c1cccc(O)c1 (stereo not shown) [Compound I-1007] | < 1 µM | 
COc1ccccc1C(CCN)C(=O)Nc1ccc2[nH]ncc2c1 (stereo not shown) [Compound I-1005] | < 1 µM | 
O=C(Cc1ccc(SC(F)(F)F)cc1)Nc1ccc2[nH]ncc2c1 [Compound I-12] | > 3 µM | 
O=C(Cc1ccc(Oc2ccccc2)cc1)Nc1ccc2[nH]ncc2c1 [Compound I-15] | > 3 µM | 
CC(=O)Nc1n[nH]c2ccc(NC(=O)C(CCN)c3ccc(Cl)c(Cl)c3)cc12 (stereo not shown) [Compound I-140] | > 3 µM | 
NCCC(C(=O)Nc1ccc2[nH]ncc2c1)c1ccccc1 (stereo not shown) [Compound I-98] | < 1 µM | 
NCCC(C(=O)Nc1ccc2[nH]ncc2c1)c1c(F)ccc(Cl)c1F (stereo not shown) [Compound I-109] | < 1 µM | 
Cc1n[nH]c2ccc(NC(=O)C(CCN)c3cccc(Cl)n3)cc12 (stereo not shown) [Compound I-129] | < 1 µM | 
Cc1n[nH]c2ccc(NC(=O)[C@H](CCN)c3cccc(Cl)c3F)cc12 [Compound I-125] | < 1 µM | 
O=C(Cc1cccc(Cl)c1)Nc1ccc2[nH]ncc2c1 [Compound I-6, 2-(3-Chloro-phenyl)-N-(1H-indazol-5-yl)-acetamide] | < 1 µM | 
Cc1n[nH]c2ccc(NC(=O)[C@@H](CCN)c3cccc(Cl)c3F)cc12 [Compound I-126] | < 1 µM | 
COc1ccc(C(CCN)C(=O)Nc2ccc3[nH]ncc3c2)cc1OC (stereo not shown) [Compound I-1002] | < 1 µM | 
Cc1n[nH]c2ccc(NC(=O)C(CCN)c3ccc(Cl)cc3F)cc12 (stereo not shown) [Compound I-132] | < 1 µM | 
NCCC(C(=O)Nc1cc(Br)c2[nH]ncc2c1)c1ccc(Cl)c(Cl)c1 (stereo not shown) [Compound I-144] | < 1 µM | 
Cc1n[nH]c2ccc(NC(=O)C(CCN)c3cccc(CC(C)C)c3)cc12 (stereo not shown) [Compound I-142] | < 1 µM | < 1 µM
CNc1n[nH]c2ccc(NC(=O)C(CCN)c3ccccc3OC)cc12 (stereo not shown) [Compound I-1019] | > 3 µM | 
NCCC(C(=O)Nc1cc(Br)c2[nH]nc(Cl)c2c1)c1ccc(Cl)c(Cl)c1 (stereo not shown) [Compound I-145] | < 1 µM | 

SMILES | Ki (ROCK) | Ki (AKT-3)
O=C(Cc1ccccc1Oc1ccccc1)Nc1ccc2[nH]ncc2c1 [Compound I-13] | > 3 µM | 
Cc1cccn(C(CCN)C(=O)Nc2ccc3[nH]nc(C)c3c2)c1=O (stereo not shown) [Compound I-137] | < 1 µM | 
Cc1n[nH]c2ccc(NC(=O)C(CCN)c3cccc(Cl)c3Cl)cc12 (stereo not shown) [Compound I-120] | < 1 µM | 
NCCC(C(=O)Nc1ccc2[nH]ncc2c1)c1cccc(Cl)c1 (stereo not shown) [Compound I-100] | < 1 µM | 
O=C(CCC(C(=O)O)c1ccccc1)Nc1ccc2[nH]ncc2c1 (stereo not shown) [Compound I-1014] | > 3 µM | 
NCCC(C(=O)Nc1ccc2[nH]ncc2c1)c1cc(C(F)(F)F)cc(C(F)(F)F)c1 (stereo not shown) [Compound I-105] | < 1 µM | 
O=C(Cc1ccc(Cl)c(Cl)c1)Nc1ccc2[nH]ncc2c1 [Compound I-16] | > 3 µM | 
NCCC(C(=O)Nc1ccc2[nH]ncc2c1)c1ccc(F)c(C(F)(F)F)c1 (stereo not shown) [Compound I-103] | < 1 µM | 
O=C(CC1CCCCCC1)Nc1ccc2[nH]ncc2c1 [Compound I-30] | > 3 µM | 
O=C(Cc1csc2ccccc12)Nc1ccc2[nH]ncc2c1 [Compound I-25] | < 1 µM | 
NCCC(C(=O)Nc1ccc2[nH]ncc2c1)c1cccc(Br)c1 (stereo not shown) [Compound I-110] | < 1 µM | 
COc1ccc(C(CCC(=O)NCc2ccccc2)C(=O)Nc2ccc3[nH]ncc3c2)cc1 (stereo not shown) [Compound I-1003] | > 3 µM | 
NCCC(C(=O)Nc1ccc2[nH]ncc2c1)c1cccc(C(F)(F)F)c1 (stereo not shown) [Compound I-104] | < 1 µM | 
NCCC(C(=O)Nc1ccc2[nH]ncc2c1)c1cccc(Cl)c1Cl (stereo not shown) [Compound I-106] | < 1 µM | 
Cc1n[nH]c2ccc(NC(=O)C(CCN)c3ccc(Cl)s3)cc12 (stereo not shown) [Compound I-139] | > 3 µM | 
O=C(Cc1cccc(O)c1)Nc1ccc2[nH]ncc2c1 [Compound I-8] | < 1 µM | 
O=C(Cc1ccc(Cl)cc1)Nc1ccc2[nH]ncc2c1 [Compound I-5] | < 1 µM | 
O=C(CC1CCCC1)Nc1ccc2[nH]ncc2c1 [Compound I-28] | > 3 µM | 
COc1cccc(C(CCN)C(=O)Nc2ccc3[nH]nc(C)c3c2)c1 (stereo not shown) [Compound I-1018] | < 1 µM | 
Cc1n[nH]c2ccc(NC(=O)C(CCN)c3ccc(Cl)c(Cl)c3F)cc12 (stereo not shown) [Compound I-136] | < 1 µM | 
NCCC(C(=O)Nc1ccc2[nH]nc(NC(=O)c3ccccc3)c2c1)c1ccc(Cl)c(Cl)c1 (stereo not shown) [Compound I-141] | < 1 µM | 
O=C(Nc1ccc2[nH]ncc2c1)C(O)c1ccc(Cl)cc1 (stereo not shown) [Compound I-35] | < 1 µM | 
NCC(C(=O)Nc1ccc2[nH]ncc2c1)c1ccc(Cl)c(Cl)c1 (stereo not shown) [Compound I-99] | < 1 µM | 
CCc1n[nH]c2ccc(NC(=O)C(CCN)c3ccc(Cl)c(Cl)c3)cc12 (stereo not shown) [Compound I-118] | > 3 µM | 
NCCNC(C(=O)Nc1ccc2[nH]ncc2c1)c1ccc(Cl)c(Cl)c1 (stereo not shown) [Compound I-69] | < 1 µM | 
